For 1 substance, binding results are on record in US20140050716A1.

The chains behind the UniProt entries cited, without tags or fusion partners. Where a name states a change or a piece, a line headed by the entry shows the natural chain unless it says otherwise. Residues count along the entry.
UniProt P10646, residues 29-282: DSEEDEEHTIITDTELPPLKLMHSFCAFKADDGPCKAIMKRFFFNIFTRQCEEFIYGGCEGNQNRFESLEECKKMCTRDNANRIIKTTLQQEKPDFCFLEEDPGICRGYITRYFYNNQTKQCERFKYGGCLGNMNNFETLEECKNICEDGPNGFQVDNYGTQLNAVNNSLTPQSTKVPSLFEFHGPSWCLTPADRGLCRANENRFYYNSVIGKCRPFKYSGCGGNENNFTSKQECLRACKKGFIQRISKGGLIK
UniProt P00742: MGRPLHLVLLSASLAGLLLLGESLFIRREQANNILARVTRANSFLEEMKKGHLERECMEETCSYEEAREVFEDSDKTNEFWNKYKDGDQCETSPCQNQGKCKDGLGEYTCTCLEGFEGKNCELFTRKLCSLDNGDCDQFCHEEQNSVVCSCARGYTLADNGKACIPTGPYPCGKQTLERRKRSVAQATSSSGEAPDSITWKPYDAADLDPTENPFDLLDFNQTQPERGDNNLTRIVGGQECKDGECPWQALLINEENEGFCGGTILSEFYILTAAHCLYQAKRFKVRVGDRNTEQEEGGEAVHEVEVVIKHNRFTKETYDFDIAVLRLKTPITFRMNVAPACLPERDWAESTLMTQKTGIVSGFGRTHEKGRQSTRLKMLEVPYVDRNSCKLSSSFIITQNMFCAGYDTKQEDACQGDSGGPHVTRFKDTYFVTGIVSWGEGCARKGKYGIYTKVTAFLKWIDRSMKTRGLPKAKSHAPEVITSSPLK

No constants are given. Whether binding was seen depends on the method and setting. Some entries that bind do so weakly or less than the wild type.

This assay addresses human recombinant TFPI (tissue factor pathway inhibitor) (human) (UniProt P10646). Nature of the assay: inhibition of amidolytic activity by TFPI, chromogenic substrate PNAPEP 1025.

As to “human GDXa (Gla Domainless FXa, modified factor Xa) (from UniProt P00742 85-179; P00742 235-488) (enzyme)”, the binding result was “binds”.
